According to PMC11806007:
No constants are given. Whether binding was seen depends on the method and setting. Binding seen in cells or lysates may run through a third protein. Some results given as binding are weak or reduced against the parent protein; the word gives no strength. Tags and fused reporters may be left off the sequences shown.

By UniProt entry, the sequences of proteins in these tests, tags left out.
UniProt Q00987: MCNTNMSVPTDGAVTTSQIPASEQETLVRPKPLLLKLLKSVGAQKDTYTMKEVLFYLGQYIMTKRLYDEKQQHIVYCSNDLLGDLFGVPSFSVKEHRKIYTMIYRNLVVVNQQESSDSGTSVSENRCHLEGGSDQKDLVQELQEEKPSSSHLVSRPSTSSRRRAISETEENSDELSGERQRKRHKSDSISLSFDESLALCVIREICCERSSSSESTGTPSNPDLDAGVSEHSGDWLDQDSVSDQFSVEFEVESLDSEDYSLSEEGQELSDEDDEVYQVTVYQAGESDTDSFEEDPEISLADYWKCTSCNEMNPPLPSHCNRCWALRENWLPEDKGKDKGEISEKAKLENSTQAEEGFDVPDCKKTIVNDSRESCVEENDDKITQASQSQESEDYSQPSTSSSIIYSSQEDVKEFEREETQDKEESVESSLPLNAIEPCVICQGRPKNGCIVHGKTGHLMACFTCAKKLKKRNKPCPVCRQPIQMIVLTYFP

Tests used:
spastin-DDK-MYC (human) [1] = biological target: T1, spastin-DDK-MYC (human) (UniProt Q9UBP0); experiment: proximity ligation; in situ PLA (Duolink) on fixed cells; mouse anti-MDM2 (SMP14) and rabbit anti-FLAG; amplification 120 min
T1 sequence: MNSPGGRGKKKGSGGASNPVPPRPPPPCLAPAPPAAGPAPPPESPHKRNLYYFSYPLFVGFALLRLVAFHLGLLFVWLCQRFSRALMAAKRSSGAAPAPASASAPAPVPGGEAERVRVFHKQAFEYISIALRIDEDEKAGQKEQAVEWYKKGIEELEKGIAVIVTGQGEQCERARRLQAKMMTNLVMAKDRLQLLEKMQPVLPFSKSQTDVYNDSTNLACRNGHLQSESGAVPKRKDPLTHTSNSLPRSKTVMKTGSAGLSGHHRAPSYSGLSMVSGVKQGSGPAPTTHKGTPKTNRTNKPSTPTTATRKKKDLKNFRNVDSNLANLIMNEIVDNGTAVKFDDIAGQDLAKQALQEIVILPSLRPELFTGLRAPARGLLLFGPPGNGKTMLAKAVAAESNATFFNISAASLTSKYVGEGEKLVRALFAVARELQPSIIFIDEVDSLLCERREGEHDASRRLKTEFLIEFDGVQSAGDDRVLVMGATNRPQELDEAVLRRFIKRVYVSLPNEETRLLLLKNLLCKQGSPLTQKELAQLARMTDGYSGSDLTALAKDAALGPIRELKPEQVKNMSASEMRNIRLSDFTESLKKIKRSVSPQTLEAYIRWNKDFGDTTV

spastin-DDK-MYC (human) [2] = biological target: T1, spastin-DDK-MYC (human); experiment: co-IP; total cell extracts of HeLa cells transfected with pCMV6-spastin-DDK-MYC or pCMV6-DDK-MYC, lysed 24 h post transfection, immunoprecipitated with anti-DDK Ab, WB for MDM2

What does the source list for “MDM2 (endogenous) (from UniProt Q00987 1-491)”?
binding (spastin-DDK-MYC (human) [1]): binds; binding (spastin-DDK-MYC (human) [2]): binds
